Measured values reported in PubChem BioAssay AID2685 (National Center for Advancing Translational Sciences (NCATS), 2010).
This is one part of the list. Further columns of the screen follow, without active or inactive calls. Compounds called inactive in the main read-out are mostly missing here. Words in brackets tell the shape of the fitted curve; partial curves, single points and poor fits give uncertain potencies.

Assay: qHTS Assay for Lipid Storage Modulators in Drosophila S3 Cells;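 for cell number change: cells counted by Cell Tracker Red CMTPX staining in the red channel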
Conditions: BODIPY lipid droplet fluorescence, 18-24 h; for cell number change: measured here: cell count max response, cells fed with added oleic acid
Summary of the method: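 Drosophila S3 cells got compounds at several concentrations plus oleic acid (400 uM solution). Laser-scanning cytometry with 488 nm excitation read lipid droplets at 500-530 nm and cells at 575-640 nm. Percent activity was relative to 20 uM Triacsin C.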

[1] = measured here: lipid fluorescence (Fed channel) AC50, cells fed with added oleic acid
[2] = measured here: cell number channel AC50, cells fed with added oleic acid

SMILES	cell number change [%]	AC50 [1]	AC50 [2]
CC(C)CCn1c(NCCN(C)C)nc2c1c(=O)[nH]c(=O)n2C	-0.993	0.82 µM [falling, full curve, poor fit]	
Cc1nc2ncc(Br)cc2[nH]1	27.6	3.66 µM [rising, full curve, poor fit]	3.66 µM [rising, full curve, poor fit]
CC(=O)c1cccc(Nc2nc(-c3cccc([N+](=O)[O-])c3)cs2)c1		1.46 µM [rising, partial curve]	1.46 µM [rising, partial curve]
CC(Oc1ccccc1Cl)C(=O)Nc1ccc(S(=O)(=O)Nc2nccs2)cc1 (configuration not stated)	57.8		9.2 µM [rising, partial curve]
Cc1cccc(N2CCN(C(=O)CCCn3c(=O)c4cccn4c4cccnc43)CC2)c1C		0.58 µM [rising, single point]	
Cc1ccc(C)c(CN2CCCN(Cc3cc(C)ccc3C)S2(=O)=O)c1		1.64 µM [rising, full curve]	
O=C(N/N=C/c1ccco1)c1ccc(C(=O)N/N=C/c2ccco2)o1	-14.2		
CCOC(=O)C(=O)Nc1ccccc1C(N)=O	-32.6	0.116 µM [falling, full curve, poor fit]	1.64 µM [falling, full curve]
O=C(CSc1nnc(Cc2ccccc2)n1-c1ccccc1)NNC(=O)Cc1ccccc1	-93.7	0.231 µM [falling, partial curve]	16.4 µM [falling, partial curve]
Cc1cc(NC(=O)CSc2nc3c(C)cccc3cc2C#N)no1	146		25.9 µM [rising, single point]
CCN(CC)CCN(C(=O)/C=C/c1cccs1)c1nc2ccc(C)cc2s1	-5.01	23.1 µM [falling, single point]	
C=CC(=O)Nc1sc2c(c1C(N)=O)CCCC2	-45.9	14.6 µM [falling, partial curve]	9.2 µM [falling, partial curve]
CCCCCCc1ccc(OC(=O)c2ccncc2)cc1	-20.9		
COc1cccc(C(=O)COC(=O)c2ccc(NC(C)=O)cc2)c1	20.2	4.61 µM [falling, full curve]	6.51 µM [falling, single point]
O=C(Nc1nccs1)c1nc[nH]c1C(=O)NCc1ccccc1	0.339	20.6 µM [rising, single point]	
CN(C)CCCN(C(=O)C1COc2ccccc2O1)c1nc2cc3c(cc2s1)OCO3 (configuration not stated)	3.66		

Molecules listed so far that contain a thiophene ring, fused or not, in the order listed:
SMILES	cell number change [%]	AC50 [1]	AC50 [2]
CCN(CC)CCN(C(=O)/C=C/c1cccs1)c1nc2ccc(C)cc2s1	-5.01	23.1 µM [falling, single point]	
C=CC(=O)Nc1sc2c(c1C(N)=O)CCCC2	-45.9	14.6 µM [falling, partial curve]	9.2 µM [falling, partial curve]
